Patent publication CN111018985A
Results are given in words; binding and its absence hold for the method and conditions named. Some results given as binding are weak or reduced against the parent protein; the word gives no strength.

Chains of the proteins cited; added tags and fusions are not shown. Residues count along the entry.
UniProt P02769, residues 25-607: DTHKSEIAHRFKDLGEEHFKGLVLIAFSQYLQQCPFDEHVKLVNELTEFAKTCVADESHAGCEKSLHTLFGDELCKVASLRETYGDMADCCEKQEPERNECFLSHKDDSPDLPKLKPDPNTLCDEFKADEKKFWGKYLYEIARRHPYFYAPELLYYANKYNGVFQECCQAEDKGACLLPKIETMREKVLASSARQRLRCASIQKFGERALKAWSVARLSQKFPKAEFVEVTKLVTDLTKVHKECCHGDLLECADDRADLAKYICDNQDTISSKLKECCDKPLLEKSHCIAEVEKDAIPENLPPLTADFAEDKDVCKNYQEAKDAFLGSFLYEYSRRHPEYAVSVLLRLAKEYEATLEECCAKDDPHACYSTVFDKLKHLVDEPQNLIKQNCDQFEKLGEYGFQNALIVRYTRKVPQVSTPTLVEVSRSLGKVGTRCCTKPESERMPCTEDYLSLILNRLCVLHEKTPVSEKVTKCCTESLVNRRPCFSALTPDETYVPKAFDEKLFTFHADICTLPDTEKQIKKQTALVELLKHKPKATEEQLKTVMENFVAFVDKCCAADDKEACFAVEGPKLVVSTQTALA

Columns and labels:
牛血清白蛋白(BSA) (牛 (bovine)) [1] = target: 牛血清白蛋白(BSA) (牛 (bovine)) (UniProt P02769); test: ELISA, 100 ng BSA coated, purified VHH, HRP anti-HA, OD450
牛血清白蛋白(BSA) (牛 (bovine)) [2] = target: 牛血清白蛋白(BSA) (牛 (bovine)) (UniProt P02769); test: ELISA, crude extract on BSA-Biotin captured by neutravidin, anti-HA detection; positive if OD > 5x control
牛血清白蛋白(BSA) (牛 (bovine)) [3] = target: 牛血清白蛋白(BSA) (牛 (bovine)) (UniProt P02769); test: ELISA, BSA coated, human Fc-fused VHH, HRP anti-human Fc, OD450

Row | binding (牛血清白蛋白(BSA) (牛 (bovine)) [1]) | binding (牛血清白蛋白(BSA) (牛 (bovine)) [2]) | binding (牛血清白蛋白(BSA) (牛 (bovine)) [3]) | Binder
1 | binds | binds |  | 1D3 (VHH, not shown: small tags and cut ends) VHH: QVQLQESGGGSVQAGGSLRLSCAASEYTSSVTFMAWVRQAPGKEREGVATIYTVTGRSYYADSVKGRFTISQDKAKNTVYLQMNSLKPEDTAMYYCAATPFSLSKATRLAKFGSLNENEYDLWGQGTQVTVSS
2 | binds | binds |  | 2B1 (VHH, not shown: small tags and cut ends) VHH: QVQLQESGGGSVQAGGSLRLSCAVSGYTLSNKWMGWFRQAPGKEREGVAAIYTGGGRTDYADSVKGRFTISQDNAQNTLYLQMNSLKPEDTAMYYCAAARGYGQNWYRTLRTEAYDIWGQGTQVTVSS
3 | binds | binds |  | 1B4 (VHH, not shown: small tags and cut ends) VHH: QVQLQESGGGSVQAGGSLRLSCVASRYMGSTYYMAWFRQAPGKEREGVAAIYIASGNSGSTYYADSVKGRFTISRDNAKNTVYLQMNSLIPEDTASYYCASDLSRRNWLPPLVPGKYSLWGQGTQVTVSS
4 |  |  | binds | 2D6 针对BSA的重组单域抗体 (人源Fc融合) (Fc fusion, 人源 (human), not shown: a dimerising Fc or GST; small tags and cut ends) QVQLQESGGGSVQTGGSLRLSCAASGNSDGAWSMGWFRQAPGKEREGVAALYVFTGITYYAGSVKGRFTISQDKAKNTVYLQMNSLKPEDTAMYYCAAGTAFPTLNRNKYNYWGQGTQVTVSS
5 | binds | binds |  | 1C6 (VHH, not shown: small tags and cut ends) VHH: QVQLQESGGGSVQAGGSLRLSCVVSGYAYSTNYMGWFRQAPGKEREGVAVIYTTVGTTYYADSVKGRFTISQDNAKNTVSLQMNSLQPEDTAMYYCAAVRRPWRLDSLDPSSFRYWGQGTQVTVSS
6 | binds | binds |  | 2B3 (VHH, not shown: small tags and cut ends) VHH: QVQLQESGGGSVQTGGSLRLSCAASGSTDRRNYMAWFRQAPGKEREGVAAIGTISGFTHYADSVKGRFTISQDNARNTVYLQMNRMIPEDTAMYYCAADSRTRVIIGWFLNPDKYNYWGRGTQVTVSS

The remaining lines, values behind:

Row | Binder | binding (牛血清白蛋白(BSA) (牛 (bovine)) [1]) | binding (牛血清白蛋白(BSA) (牛 (bovine)) [2]) | binding (牛血清白蛋白(BSA) (牛 (bovine)) [3])
7 | 1D8 (VHH, not shown: small tags and cut ends) VHH: QVQLQESGGGSVQAGGSLRLSCAASGYTYSSSYMGWFRQAPGKEREGVAVIYTTGGRTYYADSVKGRFTISRDNAKNTVYLQMNSLKPEDTAMYYCAADGSRRNWYSPLDPRKYNYWGQGTQVTVSS | binds | binds | 
8 | 1D11 (VHH, not shown: small tags and cut ends) VHH: QVQLQESGGGSVQAGGSLRLSCTASGYTHRMAWFRQAPGKEREGVAAIYTDVGHTYYAASVKGRFTIAQDNANNTAYLQMNSLKPEDTAIYYCAAARGGYSWRKVNEYNYWGQGTQVTVSS | binds | binds | 
9 | 1D6 (VHH, not shown: small tags and cut ends) VHH: QVQLQESGGGSVQAGGSLRLSCVVSGYAYSTNYMGWFRQAPGKEREGVAVIYTTVGTTYYADSVKGRFTISQDNAKNTVSLQMNGLQPEDTAMYYCAAVRRPWRLDSLDPSSFRYWGQGTQVTVSS | binds | binds | 
10 | 1D10 (VHH, not shown: small tags and cut ends) VHH: QVQLQESGGGSVQAGGSLRLSCAASGYTGSVNYMAWFRQAPGKEREGVAAIYGYGGSTYYADSVKGRFTISRDNAKNTVYLQMNSLIPEDTASYYCASDQSRRSWLSPLVPGKYSLWGQGTQVTVSS | binds | binds | 
11 | 2D8 (VHH, not shown: small tags and cut ends) VHH: QVQLQESGGGSVQAGGSLRLSCEASGYTGSVNYMAWFRQPPGKEREGVAAIYGGGGSTYYADAVKGRFTISRDNAKNTVYLQMNSLIPEDTASYYCASDQSRRSWFPPLVPGKYSLWGQGTQVTVSS | binds | binds | 
